{"source": "PubChem BioAssay AID540256", "about": "(National Center for Advancing Translational Sciences (NCATS), 2011)", "note": "Where “and” joins values, the source holds several entries; their conditions need not be identical. Equal entries are not always repeated. About 3,700 (1.2%) of roughly 300,000 compounds were called active. Inconclusive results, whose numbers are uncertain, are shown with a selection of clear calls. Calls follow the shape of the full dose curve; tested in HEK293 cells. Potencies beside an inconclusive call are fits to weak or partial responses and may not hold up. Potency is read from the fitted curve at half-maximal effect."}
{"test": "qHTS for Inhibitors of binding or entry into cells for Lassa Virus; also: nearly all actives have a fitted effect of over 50% in size", "conditions": "Lassa virus pseudotype entry inhibition, cell reporter; series mostly up to 37.9 µM"}
{"smiles": "O=C(CCC(=O)c1cccs1)Nc1nnc(C2CC2)s1", "Potency": "inactive"}
{"smiles": "CCn1cc(C(=O)OCC(=O)OC2CC(C)CCC2C(C)C)c(=O)c2ccc(C)nc21", "note": "(configuration not stated)", "Potency": "inconclusive: 25.9 µM [inhibitor, partial curve, poor fit]"}
{"smiles": "COc1ccc(C(=O)NCCn2cc(SCC(=O)Nc3ccc(C)cc3)c3ccccc32)cc1", "Potency": "inconclusive: 35.5 µM [inhibitor, single point]"}
{"smiles": "O=C(O)c1cccnc1SCCc1ccccc1", "Potency": "inconclusive: 11.6 µM [inhibitor, partial curve, poor fit]"}
{"smiles": "c1ccc(-c2cn3c(n2)-c2ccccc2C3)cc1", "Potency": "active: 4.47 µM"}
{"smiles": "Cc1cccc(NC(=O)c2cccnc2Oc2ccccc2)c1C(=O)O", "Potency": "inconclusive: 3.98 µM [activator, full curve, poor fit]"}
{"smiles": "CC(C)CC(COCc1cccc(Cl)c1)N1CCN(C(=O)c2cccc(C(F)(F)F)c2)CCC1=O", "note": "(configuration not stated)", "Potency": "inconclusive: 8.2 µM [inhibitor, partial curve]"}
{"smiles": "O=C(CCS(=O)(=O)c1cccs1)NC1CCCCCC1", "Potency": "inconclusive: 3.66 µM [activator, single point]"}
{"smiles": "CN(C(=O)Nc1cnccc1C(F)(F)F)C1CCCCC1", "Potency": "inactive"}
{"smiles": "Brc1ccc(C2=NC(Cc3ccccc3)CO2)cc1", "note": "(configuration not stated)", "Potency": "inconclusive: 6.51 µM [activator, single point]"}
{"smiles": "CCN(CC)S(=O)(=O)c1cc(NS(=O)(=O)c2cc(Cl)ccc2Cl)ccc1C", "Potency": "inconclusive: 11.2 µM [inhibitor, partial curve, poor fit]"}
{"smiles": "COc1ccc(C=NNC(=O)NN=Cc2ccc(OC)c(OC)c2)cc1OC", "Potency": "inconclusive: 1.78 µM [inhibitor, partial curve, poor fit]"}
{"smiles": "Cc1ccc(C)c(S(=O)(=O)c2cn(C)c3cc(N4CCCCC4C)c(F)cc3c2=O)c1", "note": "(configuration not stated)", "Potency": "inactive"}
{"smiles": "CN1CCc2c(sc3c2C(=O)NC(c2ccc(OC(=O)c4ccccc4)cc2)N3)C1", "note": "(configuration not stated)", "Potency": "inconclusive: 5.62 µM [activator, single point]"}
{"smiles": "COc1ccc(OC)c(NCc2cccn2-c2nnc(N3CCCCC3)s2)c1", "Potency": "inconclusive: 3.55 µM [inhibitor, full curve]"}
{"smiles": "COc1ccc2[nH]c(=O)c(CN(Cc3cccs3)S(=O)(=O)c3c(C)ccc4nsnc34)cc2c1", "Potency": "active: 13 µM"}
{"smiles": "COCCOC(=O)c1c(NC(=O)CSc2cccc[n+]2[O-])sc(C(N)=O)c1C", "Potency": "inconclusive: 0.708 µM [inhibitor, single point]"}
{"smiles": "OCCN1CCN(CCCN2c3ccccc3Sc3ccc(C(F)(F)F)cc32)CC1", "Potency": "active: 7.3 µM"}
{"smiles": "Cc1cc(NCc2ccccn2)n2ncc(-c3ccccc3)c2n1", "Potency": "inconclusive: 14.1 µM [inhibitor, partial curve, poor fit]"}
{"smiles": "CCN1CCN(c2ncc(C(=O)Nc3ccccc3C(=O)OC)c3ccccc23)CC1", "Potency": "inconclusive: 25.1 µM [inhibitor, single point]"}
{"smiles": "CN(C)S(=O)(=O)N1CCC(Oc2ccc(C(=O)N3C[C@H]4CC[C@H]3C4)cc2)CC1", "Potency": "inconclusive: 12.6 µM [inhibitor, single point]"}
{"smiles": "O=C(NCc1cccnc1)c1cn(-c2ccccc2)nc1-c1cccs1", "Potency": "inactive"}
{"smiles": "Cn1c(=O)c2c(nc(Br)n2CC(=O)C23CC4CC(CC(C4)C2)C3)n(C)c1=O", "Potency": "inconclusive: 29.1 µM [inhibitor, single point]"}
{"smiles": "COCCCn1c(=O)c2sccc2n2c(CCCC(=O)Nc3cc(C)cc(C)c3)nnc12", "Potency": "inactive"}
{"smiles": "O=C(NC1CCCCC1)N1CCc2[nH]c3ccccc3c2C1", "Potency": "inconclusive: 35.5 µM [inhibitor, partial curve, poor fit]"}
{"smiles": "Cc1ccc(-c2noc(CN(C(=O)c3ccc4c(c3)OCO4)C(C)C)n2)cc1", "Potency": "inconclusive: 35.5 µM [inhibitor, partial curve, poor fit]"}
{"smiles": "COC(=O)c1c(NC(=O)COc2ccc(Cl)cc2)sc2c1CC(C)(C)NC2(C)C", "Potency": "inactive"}
{"smiles": "O=C(NCCc1ccco1)C(=O)NCC1CCCN1S(=O)(=O)c1ccccc1", "note": "(configuration not stated)", "Potency": "inconclusive: 1.26 µM [inhibitor, full curve, poor fit]"}
{"smiles": "Cc1cccc(-c2nnc(-c3ccc4ccccc4c3)o2)c1", "Potency": "inconclusive: 11.2 µM [inhibitor, single point]"}
{"smiles": "CCOC(=O)C1CCN(C(c2ccc(SC)cc2)c2c(O)cc(C)n(Cc3ccco3)c2=O)CC1", "note": "(configuration not stated)", "Potency": "inactive"}
{"smiles": "O=S(=O)(/N=S1\\CC=CCN1S(=O)(=O)c1ccccc1)c1ccccc1", "note": "(configuration not stated)", "Potency": "inconclusive: 10 µM [inhibitor, single point]"}
{"smiles": "COc1cc(C2NC(=O)c3c(sc4c3CCN(C)C4)N2)cc(Br)c1OC(=O)c1ccc(C)cc1", "note": "(configuration not stated)", "Potency": "inactive"}
{"smiles": "CCc1cccc(C)c1NC(=O)Cn1cnc2c1c(=O)n(C)c(=O)n2C", "Potency": "inactive"}
{"smiles": "CN(/C=C/C(=C\\C=[N+](C)c1ccccc1)OCCCS(=O)(=O)[O-])c1ccccc1", "Potency": "inactive"}
{"smiles": "Nc1cc(-c2cccc(Br)c2)nn1Cc1ccccc1", "Potency": "inconclusive: 2.31 µM [inhibitor, single point]"}
{"smiles": "Cc1nc2c(-c3ccc(F)cc3)cnn2c2c1CCC2", "Potency": "inconclusive: 8.91 µM [activator, partial curve]"}
{"smiles": "Cc1c(Cl)cccc1NC(=O)NN1CCN(C)CC1", "Potency": "inconclusive: 35.5 µM [inhibitor, single point]"}
{"smiles": "CC(Cl)C(=O)NNc1cccc(Cl)n1", "note": "(configuration not stated)", "Potency": "inactive"}
{"smiles": "COc1ccc2cc(-c3c(-c4ccncc4)nc(-c4ccc(S(C)(=O)=O)cc4C)n3C)ccc2c1", "Potency": "active: 7.91 µM"}
{"smiles": "CCCCN1CC(COCc2ccccc2)Oc2ccccc2S1(=O)=O", "note": "(configuration not stated)", "Potency": "inconclusive: 28.1 µM [inhibitor, single point]"}
{"smiles": "Cc1nc2nncn2c(Nc2ccccc2)c1C", "Potency": "inactive"}
{"smiles": "COCc1[nH]nc2c1C(c1cc(OC)c(O)c(OC)c1)C(C#N)=C(N)O2", "note": "(configuration not stated)", "Potency": "inconclusive: 10.3 µM [activator, partial curve, poor fit]"}
{"smiles": "CC(C)(C)Nc1c2ccccc2nc2ccccc12", "Potency": "inactive"}
{"smiles": "COc1ccc(-c2cc(C)no2)cc1S(=O)(=O)Nc1c(C)cc(C)cc1C", "Potency": "inconclusive: 35.5 µM [inhibitor, single point]"}
{"smiles": "O=C(Nc1cccn(Cc2ccc(F)cc2)c1=O)NC1CCCCC1", "Potency": "inconclusive: 1.03 µM [inhibitor, full curve]"}
{"smiles": "O=C(COC(=O)c1cccc(S(=O)(=O)N2CCOCC2)c1)Nc1nc(-c2ccccc2Cl)cs1", "Potency": "inactive"}
{"smiles": "CCC1S/C(=N/N=C/c2ccco2)N(Cc2ccccc2)C1=O", "note": "(configuration not stated)", "Potency": "inconclusive: 35.5 µM [inhibitor, single point]"}
{"smiles": "Cc1ccc(-n2nc3c(c2NC(=O)c2c(-c4ccccc4Cl)noc2C)CS(=O)(=O)C3)c(C)c1", "Potency": "inconclusive: 8.91 µM [inhibitor, partial curve, poor fit]"}
{"smiles": "NS(=O)(=O)c1cccc(NC(=O)COc2ccc([N+](=O)[O-])cc2)c1", "Potency": "inactive"}
{"smiles": "Cc1ccc(COCCN2CCN(S(=O)(=O)c3ccc(C)cc3)CCC2=O)cc1", "Potency": "inconclusive: 280 nM [activator, full curve, poor fit] and inconclusive: 18.4 µM [inhibitor, single point]"}
{"smiles": "Cc1ccc(C)c(NC(=O)C2CCCN(c3nc4ccccc4s3)C2)c1", "note": "(configuration not stated)", "Potency": "inactive"}
{"smiles": "COc1ccc(C(=O)Cc2nnc(C)s2)cc1", "Potency": "inactive"}
{"smiles": "Brc1cccc(CNCc2cccs2)c1", "Potency": "inconclusive: 0.794 µM [inhibitor, single point]"}
{"smiles": "O=C(N/N=C/c1ccc2c(c1)OCO2)c1cc(-c2ccncc2)nc2ccccc12", "Potency": "inconclusive: 0.282 µM [inhibitor, full curve, poor fit]"}
{"smiles": "CCCN1CCCC(c2ccc(Nc3nc(Nc4cc(F)ccc4C(N)=O)c4cc[nH]c4n3)c(OC)c2)C1", "note": "(configuration not stated)", "Potency": "active: 14.1 µM"}
{"smiles": "O=C(NCc1cccc(F)c1)C1CCCN(C(=O)N2CCOc3ccccc32)C1", "note": "(configuration not stated)", "Potency": "inconclusive: 35.5 µM [activator, single point]"}
{"smiles": "Cc1ccc(C)c(NC(=O)CCC(=O)N/N=C/c2cc([N+](=O)[O-])ccc2O)c1", "Potency": "inconclusive: 20 µM [inhibitor, single point]"}
{"smiles": "CN(C)CCCCOc1ccccc1F", "Potency": "inactive"}
{"smiles": "COc1ccc(NC(=O)COc2ccccc2Cc2ccccc2)cn1", "Potency": "inconclusive: 35.5 µM [inhibitor, single point]"}
{"smiles": "CCOC(=O)C1CCN(C(=O)c2ccc(OCC(=O)Nc3cccc(C(F)(F)F)c3)c(OC)c2)CC1", "Potency": "inconclusive: 11.2 µM [inhibitor, single point]"}
{"smiles": "O=S(=O)(c1ccccc1Oc1ccc(Cl)cc1Cl)N1CCCCC1", "Potency": "inconclusive: 20 µM [activator, single point]"}
{"smiles": "CC12CCC(C(=O)N(NC(=O)c3ccccc3O)C1=O)C2(C)C", "note": "(configuration not stated)", "Potency": "inconclusive: 2.82 µM [inhibitor, partial curve, poor fit]"}
{"smiles": "Nc1ccccc1Nc1nc2ccccc2[nH]1", "Potency": "inconclusive: 6.31 µM [activator, single point]"}
{"smiles": "CCOC(=O)C1CCN(S(=O)(=O)c2ccc3[nH]c4c(c3c2)CCCC4)CC1", "Potency": "inconclusive: 12.6 µM [inhibitor, partial curve, poor fit]"}
{"smiles": "COc1ccc(N2CCN(C(=O)CCn3c(=O)[nH]c4cc(OC)c(OC)cc4c3=O)CC2)cc1", "Potency": "inconclusive: 4.47 µM [activator, partial curve, poor fit]"}
{"smiles": "Cc1ccc(CN=c2c([N+](=O)[O-])nn(-c3ccc4c(c3)OCCO4)n2O)cc1", "Potency": "inconclusive: 35.5 µM [inhibitor, single point]"}
{"smiles": "COC(=O)c1c(NC(=O)CCCOc2ccc(C(C)(C)C)cc2)sc2c1C(C(=O)OC)CC2", "note": "(configuration not stated)", "Potency": "inconclusive: 3.55 µM [inhibitor, partial curve, poor fit]"}
